The values below come from PMC7457494.

Protein sequences, listed by entry. Tags and fused reporters are not part of them.
UniProt Q00987: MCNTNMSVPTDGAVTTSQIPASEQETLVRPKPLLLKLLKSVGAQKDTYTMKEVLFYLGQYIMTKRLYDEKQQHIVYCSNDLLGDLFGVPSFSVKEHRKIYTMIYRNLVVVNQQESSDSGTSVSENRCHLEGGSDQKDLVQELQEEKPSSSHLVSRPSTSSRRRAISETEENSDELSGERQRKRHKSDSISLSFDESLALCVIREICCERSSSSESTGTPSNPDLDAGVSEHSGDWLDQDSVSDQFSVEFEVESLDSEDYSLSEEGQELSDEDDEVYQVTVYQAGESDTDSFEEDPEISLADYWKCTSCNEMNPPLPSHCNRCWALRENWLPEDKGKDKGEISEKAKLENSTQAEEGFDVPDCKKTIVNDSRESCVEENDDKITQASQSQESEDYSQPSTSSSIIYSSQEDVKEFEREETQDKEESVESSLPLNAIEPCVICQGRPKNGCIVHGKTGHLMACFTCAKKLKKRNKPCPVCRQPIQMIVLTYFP

Results are given in words; binding and its absence hold for the method and conditions named. In cells and extracts the contact can be indirect. Some results given as binding are weak or reduced against the parent protein; the word gives no strength.

The assay concerns the target Mouse double minute 2 homolog (MDM2) (human (endogenous in A375)) (UniProt Q00987). Description: proximity ligation; A375 cells on coverslips, treated with DMSO or 10 uM Nutlin-3 for 24 h, fixed with 4% paraformaldehyde, permeabilized with 0.25% Triton X-100; mouse anti-MDM2 (4B2) with goat anti-CD276, rabbit anti-p53 (CM-1) or rabbit anti-HSP70; Duolink probes; endogenous proteins in situ.

B1: cluster of differentiation 276 (CD276/B7-H3) (receptor, UniProt Q5ZPR3 29-534)
chain: LEVQVPEDPVVALVGTDATLCCSFSPEPGFSLAQLNLIWQLTDTKQLVHSFAEGQDQGSAYANRTALFPDLLAQGNASLRLQRVRVADEGSFTCFVSIRDFGSAAVSLQVAAPYSKPSMTLEPNKDLRPGDTVTITCSSYQGYPEAEVFWQDGQGVPLTGNVTTSQMANEQGLFDVHSILRVVLGANGTYSCLVRNPVLQQDAHSSVTITPQRSPTGAVEVQVPEDPVVALVGTDATLRCSFSPEPGFSLAQLNLIWQLTDTKQLVHSFTEGRDQGSAYANRTALFPDLLAQGNASLRLQRVRVADEGSFTCFVSIRDFGSAAVSLQVAAPYSKPSMTLEPNKDLRPGDTVTITCSSYRGYPEAEVFWQDGQGVPLTGNVTTSQMANEQGLFDVHSVLRVVLGANGTYSCLVRNPVLQQDAHGSVTITGQPMTFPPEALWVTVGLSVCLIALLVALAFVCWRKIKQSCEEENAGAEDQDGEGEGSKTALQPLKHSDSKEDDGQEIA
As to B1, the binding result is “binds”.
